Experimental data taken from the supplement of paper PMC12819154, “High-throughput peptide-centric local stability assay extends protein–ligand identification to membrane proteins, tissues and bacteria” (Nature Structural & Molecular Biology, 2025).
Some of the results follow. Small differences around the control level are noise.

Protein sequences, listed by entry. Tags and fused reporters are not part of them. Lines headed by an entry give the natural chain unless they say otherwise; changes in a name come on top.
UniProt P75957: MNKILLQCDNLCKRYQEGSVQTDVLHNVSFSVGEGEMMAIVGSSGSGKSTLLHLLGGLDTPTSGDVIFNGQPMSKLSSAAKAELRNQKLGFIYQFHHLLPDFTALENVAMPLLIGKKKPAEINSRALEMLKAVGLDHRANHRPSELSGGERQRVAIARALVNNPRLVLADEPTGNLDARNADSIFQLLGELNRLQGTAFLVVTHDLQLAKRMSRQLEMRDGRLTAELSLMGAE
UniProt P76121: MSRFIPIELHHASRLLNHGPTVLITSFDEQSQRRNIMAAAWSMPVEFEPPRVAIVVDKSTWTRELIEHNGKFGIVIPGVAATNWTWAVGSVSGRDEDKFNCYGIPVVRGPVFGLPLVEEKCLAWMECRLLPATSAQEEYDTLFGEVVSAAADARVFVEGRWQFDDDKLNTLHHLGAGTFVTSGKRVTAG
UniProt P76213: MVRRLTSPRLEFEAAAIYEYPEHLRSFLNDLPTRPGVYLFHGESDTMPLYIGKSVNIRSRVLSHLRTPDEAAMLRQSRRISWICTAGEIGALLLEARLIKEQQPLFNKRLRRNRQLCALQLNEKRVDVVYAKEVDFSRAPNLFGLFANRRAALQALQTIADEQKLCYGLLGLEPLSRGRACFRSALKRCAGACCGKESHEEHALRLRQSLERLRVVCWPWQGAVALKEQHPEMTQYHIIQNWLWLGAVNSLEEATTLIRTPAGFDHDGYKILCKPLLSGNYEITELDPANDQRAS
UniProt P77541: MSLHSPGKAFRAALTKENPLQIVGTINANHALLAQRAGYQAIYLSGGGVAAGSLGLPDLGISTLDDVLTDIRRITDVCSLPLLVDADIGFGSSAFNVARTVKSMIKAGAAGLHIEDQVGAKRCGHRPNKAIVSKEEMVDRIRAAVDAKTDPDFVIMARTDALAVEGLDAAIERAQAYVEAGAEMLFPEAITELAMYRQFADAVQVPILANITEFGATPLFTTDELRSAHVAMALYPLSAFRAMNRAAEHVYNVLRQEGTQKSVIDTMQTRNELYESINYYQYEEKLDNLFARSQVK
UniProt P77147: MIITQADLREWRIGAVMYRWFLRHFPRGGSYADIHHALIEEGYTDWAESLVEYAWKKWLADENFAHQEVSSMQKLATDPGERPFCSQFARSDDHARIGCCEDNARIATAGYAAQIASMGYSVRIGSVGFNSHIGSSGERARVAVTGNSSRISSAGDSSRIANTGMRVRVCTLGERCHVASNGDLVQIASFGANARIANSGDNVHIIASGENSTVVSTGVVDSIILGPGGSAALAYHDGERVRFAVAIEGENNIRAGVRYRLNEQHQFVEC
UniProt P75913: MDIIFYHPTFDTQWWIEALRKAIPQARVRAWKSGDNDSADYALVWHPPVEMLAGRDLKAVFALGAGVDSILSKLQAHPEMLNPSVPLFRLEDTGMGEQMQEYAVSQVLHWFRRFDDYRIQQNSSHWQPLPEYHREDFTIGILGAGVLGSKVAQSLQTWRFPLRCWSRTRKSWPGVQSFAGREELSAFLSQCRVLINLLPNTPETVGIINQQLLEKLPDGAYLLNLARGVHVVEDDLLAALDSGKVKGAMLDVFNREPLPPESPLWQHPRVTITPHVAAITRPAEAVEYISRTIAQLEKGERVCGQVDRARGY
UniProt P76004: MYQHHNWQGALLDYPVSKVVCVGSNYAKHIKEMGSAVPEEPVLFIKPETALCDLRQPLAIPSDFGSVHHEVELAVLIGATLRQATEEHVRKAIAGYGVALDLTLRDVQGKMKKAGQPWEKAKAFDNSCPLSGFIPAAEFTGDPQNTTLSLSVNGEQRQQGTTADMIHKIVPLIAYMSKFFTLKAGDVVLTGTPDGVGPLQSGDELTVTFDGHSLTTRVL
UniProt P76035: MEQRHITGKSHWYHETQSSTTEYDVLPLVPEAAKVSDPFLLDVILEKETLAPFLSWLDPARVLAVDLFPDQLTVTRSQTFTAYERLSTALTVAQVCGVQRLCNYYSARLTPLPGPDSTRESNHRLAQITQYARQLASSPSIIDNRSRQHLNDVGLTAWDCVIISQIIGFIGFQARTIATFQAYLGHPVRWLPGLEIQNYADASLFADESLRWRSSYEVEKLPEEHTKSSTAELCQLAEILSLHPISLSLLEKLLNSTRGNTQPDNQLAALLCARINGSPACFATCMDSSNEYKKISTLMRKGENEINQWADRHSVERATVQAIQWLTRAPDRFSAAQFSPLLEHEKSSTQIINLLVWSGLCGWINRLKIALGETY
UniProt P77585: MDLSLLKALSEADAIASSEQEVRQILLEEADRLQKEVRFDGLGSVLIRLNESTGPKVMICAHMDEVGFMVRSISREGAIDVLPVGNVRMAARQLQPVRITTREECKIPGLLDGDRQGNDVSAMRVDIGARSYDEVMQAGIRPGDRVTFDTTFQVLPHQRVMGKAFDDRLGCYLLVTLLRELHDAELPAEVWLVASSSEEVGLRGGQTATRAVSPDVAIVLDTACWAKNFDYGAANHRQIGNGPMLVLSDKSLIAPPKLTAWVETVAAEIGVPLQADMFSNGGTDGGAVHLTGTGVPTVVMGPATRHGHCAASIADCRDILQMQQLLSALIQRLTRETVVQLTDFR
UniProt P77364: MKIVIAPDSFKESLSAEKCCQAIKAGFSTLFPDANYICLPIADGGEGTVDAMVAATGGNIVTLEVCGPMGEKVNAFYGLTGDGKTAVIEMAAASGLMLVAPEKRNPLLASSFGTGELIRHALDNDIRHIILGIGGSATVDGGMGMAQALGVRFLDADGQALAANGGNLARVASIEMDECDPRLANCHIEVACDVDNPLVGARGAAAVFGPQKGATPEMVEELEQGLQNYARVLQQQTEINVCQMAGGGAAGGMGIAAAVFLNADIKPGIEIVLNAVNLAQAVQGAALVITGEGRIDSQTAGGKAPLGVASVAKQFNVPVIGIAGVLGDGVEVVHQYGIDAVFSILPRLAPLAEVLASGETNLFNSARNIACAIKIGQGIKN
UniProt P76273: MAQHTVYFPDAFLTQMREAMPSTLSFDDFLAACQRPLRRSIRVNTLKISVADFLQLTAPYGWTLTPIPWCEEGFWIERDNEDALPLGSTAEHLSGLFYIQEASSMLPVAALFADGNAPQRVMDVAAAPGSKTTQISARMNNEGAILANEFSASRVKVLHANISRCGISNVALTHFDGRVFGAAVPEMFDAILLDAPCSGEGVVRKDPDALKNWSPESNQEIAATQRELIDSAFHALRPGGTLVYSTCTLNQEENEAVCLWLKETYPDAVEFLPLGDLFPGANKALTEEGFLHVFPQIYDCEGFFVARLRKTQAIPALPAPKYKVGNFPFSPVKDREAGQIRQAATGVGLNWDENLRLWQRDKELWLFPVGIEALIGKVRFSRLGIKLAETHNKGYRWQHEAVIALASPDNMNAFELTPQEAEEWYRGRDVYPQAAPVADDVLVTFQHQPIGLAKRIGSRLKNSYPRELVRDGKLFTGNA

Each target was assayed with CC1(C)S[C@@H]2[C@H](NC(=O)[C@H](N)c3ccccc3)C(=O)N2[C@H]1C(=O)O [ampicillin] (assay: log2 fold change of tryptic peptide abundance, ligand vs vehicle (limited proteolysis) (log2 ratio); higher = more trypsin-susceptible (destabilized)). Conditions: ligand concentration: 10 uM; sample: E. coli crude lysate.

Target	log2 fold change
UniProt P75957 (peptide sequence: ILLQCDNLCKR, peptide start residue: 4)	0.238
UniProt P76121 (peptide sequence: CLAWMECR, peptide start residue: 121)	0.0201
UniProt P76213 (peptide sequence: LEFEAAAIYEYPEHLR, peptide start residue: 10)	0.359
UniProt P77541 (peptide sequence: SVIDTMQTR, peptide start residue: 262)	-0.176
UniProt P77147 (peptide sequence: LATDPGERPFCSQFAR, peptide start residue: 75)	0.0239
UniProt P75913 (peptide sequence: TIAQLEKGER, peptide start residue: 292)	0.154
UniProt P76004 (peptide sequence: KAGQPWEK, peptide start residue: 113)	-0.136
UniProt P76035 (peptide sequence: FSAAQFSPLLEHEK, peptide start residue: 333)	0.502
UniProt P77585 (peptide sequence: NFDYGAANHR, peptide start residue: 228)	-0.272
UniProt P77364 (peptide sequence: ESLSAEKCCQAIK, peptide start residue: 12)	-0.438
UniProt P76273 (peptide sequence: VGNFPFSPVKDR, peptide start residue: 324)	-0.0771

Random excerpt: two records from the list.
Target	log2 fold change
UniProt P77585 (peptide sequence: NFDYGAANHR, peptide start residue: 228)	-0.272
UniProt P75913 (peptide sequence: TIAQLEKGER, peptide start residue: 292)	0.154
